What was measured:
[1] = system: P. falciparum 3D7 parasites; experiment: P. falciparum growth inhibition assay, 1-cycle (72 h treatment), SYBR DNA staining (library screen at 2 μg/mL and dose-response); format: cell-based, Plasmodium falciparum
[2] = system: P. falciparum 3D7 parasites; experiment: P. falciparum growth inhibition assay, 2-cycle (120 h treatment), delayed-death screen and dose-response; format: cell-based, Plasmodium falciparum
[3] = system: T. gondii RH strain (RH-Tub-eYFP) tachyzoites; format: cell-based, Toxoplasma gondii

`C/C=C/C[C@@H](C)[C@@H](O)[C@H]1C(=O)N[C@@H](C)C(=O)N(C)CC(=O)N(C)[C@@H](CC(C)C)C(=O)N[C@@H](C(C)C)C(=O)N(C)[C@@H](CC(C)C)C(=O)N[C@@H](C)C(=O)N[C@H](C)C(=O)N(C)[C@@H](CC(C)C)C(=O)N(C)[C@@H](CC(C)C)C(=O)N(C)[C@@H](C(C)C)C(=O)N1C` [Cyclosporin B] showed a Pf_72h_%Growth_Rep1 [1] of 2.11%, a Pf_72h_%Growth_Rep2 [1] of -1.27% and a Pf_120h_%Growth_Rep1 [2] of 9.68%. It also gave a Pf_120h_%Growth_Rep2 [2] of 10.86%, a Tg_72h_%Growth_Rep1 [3] of 78.12% and a Tg_72h_%Growth_Rep2 [3] of 84.02%.
